From patent US10232013B2, “Use of an antimicrobial peptide TP4 in treating a cancer” (Academia Sinica, priority 2016, dated 2019)
Part of at least one peptide drawing is inferred or uncertain, most often the ends. Where no end group is shown, it is not given here.

Tested on: MB231 (TNBC) xenografts
Test: TNBC xenograft zebrafish model
Assay type: in vivo, zebrafish (Danio rerio)

## FIHHIIGGLFSAGKAIHRLIRRRRR [TP4, tilapia piscidin 4]
TNBC xenograft zebrafish, single treatment TP4 3 μg mL−1, 72-120 hpf, P<0.05
  survival: 92.6%
eGFP-TNBC xenograft zebrafish, TP4 3 μg mL−1 daily, 168 hpf, P=0.0149 vs mock
  survival: 78.9%
eGFP-expressing TNBC xenograft zebrafish, TP4 1 or 2 μg/mL, five-day treatment
  therapeutic efficacy (eGFP signal): poor therapeutic efficacy
mOrange2-TNBC xenograft zebrafish, TP4 3 μg mL−1 daily, 168 hpf, P<0.0001 vs mock
  survival: 82.5%
